Assay results from PubChem BioAssay AID1671190 (National Center for Advancing Translational Sciences (NCATS), 2021).
The whole screen tested about 580,000 compounds, of which about 6,100 (1.1%) were called active. The inconclusive results got no clear call from the source; some entries with a clear call stand among them for comparison. Calls follow the shape of the dose curve; as a rule, active = well fitted inhibition curve with a large enough effect; inconclusive = small, poorly fitted or top-dose-only effect, or another doubt; inactive = no such curve, though single readings can be large or run the other way. Potencies beside an inconclusive call are fits to weak or partial responses and may not hold up.

Protein sequences, listed by entry. Tags and fused reporters are not part of them. Lines headed by an entry give the natural chain unless they say otherwise; changes in a name come on top.
UniProt P18054: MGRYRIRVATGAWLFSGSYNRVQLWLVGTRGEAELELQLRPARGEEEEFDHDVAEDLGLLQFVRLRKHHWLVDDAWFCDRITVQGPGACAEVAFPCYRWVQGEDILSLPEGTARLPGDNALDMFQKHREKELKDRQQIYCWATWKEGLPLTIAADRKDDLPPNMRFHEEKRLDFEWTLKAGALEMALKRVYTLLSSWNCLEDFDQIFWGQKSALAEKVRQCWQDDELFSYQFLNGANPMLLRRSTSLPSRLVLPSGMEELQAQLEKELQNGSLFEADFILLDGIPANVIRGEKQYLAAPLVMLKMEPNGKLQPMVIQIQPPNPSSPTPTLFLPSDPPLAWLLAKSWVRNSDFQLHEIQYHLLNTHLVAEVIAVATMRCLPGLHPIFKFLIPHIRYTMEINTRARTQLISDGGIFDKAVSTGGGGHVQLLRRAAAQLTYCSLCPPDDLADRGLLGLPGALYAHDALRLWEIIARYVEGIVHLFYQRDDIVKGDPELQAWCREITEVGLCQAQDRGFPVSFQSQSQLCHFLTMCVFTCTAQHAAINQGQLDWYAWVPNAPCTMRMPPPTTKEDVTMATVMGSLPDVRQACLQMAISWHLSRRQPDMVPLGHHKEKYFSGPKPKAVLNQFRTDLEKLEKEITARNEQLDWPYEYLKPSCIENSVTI

Molecular target: Polyunsaturated fatty acid lipoxygenase ALOX12 (Homo sapiens) (UniProt P18054)
Assay: Primary qHTS assay for inhibitors of human arachidonate 12S-lipoxygenase (ALOX12): Round 2
Details: purified 12hLO, xylenol orange hydroperoxide absorbance; activity change, negative = inhibition: at 108 µM (top of the series) unless noted
Summary of the method: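 Purified human 12hLO (150 nM final) in 25 mM Hepes, 0.01% Triton X-100, pH 7.0 was preincubated 15 min at room temperature with compound. Then 40 uM arachidonic acid was added, 30 min. Hydroperoxide was read by Fe-XO absorbance ratio 573/405 nm.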
% is scaled to controls: 0 for no effect and ±100 for the full control effect; potency is read from the fitted curve at half-maximal effect.

| SMILES | Potency | activity change, negative = inhibition |
| --- | --- | --- |
| Cc1ncsc1CN1CCCCCCNC(=O)CC1 | inactive |  |
| Cc1nc2cc(NC(C)C(=O)Nc3ccc(C(C)C)cc3)ccc2o1 (configuration not stated) | inconclusive: 56.2 µM [inhibitor, partial curve, poor fit] |  |
| COc1ccc2nc(Nc3ccccc3)sc2c1 | inconclusive: 50.1 µM [inhibitor, partial curve, poor fit] |  |
| Cc1oc(-c2ccccc2)nc1C(=O)OCC(=O)N1CCC(C)CC1 | inactive |  |
| Cc1ccc2c(c1)nc1n2[C@@H](CNS(C)(=O)=O)COC1 | inactive |  |
| O=C(Cn1sc2ccccc2c1=O)Nc1ccc(Br)cc1 | inconclusive: 0.199 µM [inhibitor, full curve, poor fit] |  |
| CC(C)c1nc(-c2ccc(OC3CCN(C(=O)C4(c5ccccc5)CC4)C3)cc2)no1 (configuration not stated) | inconclusive: 70.8 µM [inhibitor, single point] |  |
| CCOC(=O)c1c(NC(=S)Nc2cccc(C)c2)sc2c1CC(C)(C)SC2 | inconclusive: 39.8 µM [inhibitor, partial curve] |  |
| CC1CCCCN1C(=O)Cn1ncc2c3ccccc3n(Cc3ccccc3F)c2c1=O (configuration not stated) | inactive |  |
| Cn1cnc2cnc(Nc3ccc(F)c(Cl)c3)cc21 | inconclusive: 89.1 µM [inhibitor, single point] |  |
| C/C=C/Cn1c(SCC(=O)OCc2ccccc2)nc2c1c(=O)[nH]c(=O)n2C | inconclusive: 35.5 µM [inhibitor, partial curve, poor fit] |  |
| Cc1ccccc1Nc1sc(C(=O)Nc2cccc(Cl)c2)c(N)c1C(N)=O | inconclusive: 25.1 µM [inhibitor, partial curve, poor fit] |  |
| Fc1ccc(CNc2ncnc3onc(-c4cc(F)cc(F)c4)c23)cc1 | inactive |  |
| CCn1c(=O)c(CCC(=O)NCCN2CCOCC2)c(C)c2c(C)nn(-c3ccccc3)c21 | inactive |  |
| CC(=O)c1cccc(Nc2cc(C)nc3ccc(C)cc23)c1 | inconclusive: 112 µM [inhibitor, single point] |  |
| Cc1ccc(-c2nnc(NCc3nc4ccccc4[nH]3)c3ccccc23)cc1S(=O)(=O)N1CCCCC1 | inconclusive: 3.16 µM [inhibitor, full curve, poor fit] |  |
| COCC(=O)N[C@H]1C[C@@H](Cc2cc(CN(C)c3ccccc3)on2)C1(C)C |  | inconclusive: -30.2% [inhibitor] [at 176 µM] |
| CC1(C)CC(=O)c2cc(C#N)c(SCc3ccc(Cl)cc3)nc2C1 | inconclusive: 50.1 µM [inhibitor, single point] |  |
| Cc1ccc(C(=O)COC(=O)C(Cc2c[nH]c3ccccc23)NC(=O)c2ccc(C(C)(C)C)cc2)cc1 (configuration not stated) | inconclusive: 79.4 µM [inhibitor, partial curve, poor fit] |  |
| CC[C@]1(O)C[C@@H]2CN(CCc3c([nH]c4ccccc34)[C@@](C(=O)OC)(c3cc4c(cc3OC)N(C)[C@H]3[C@@](O)(C(=O)OC)[C@H](OC(C)=O)[C@]5(CC)C=CCN6CC[C@]43[C@@H]65)C2)C1 | inconclusive: 11.4 µM [inhibitor, partial curve] |  |
| CCN(c1ccccc1)S(=O)(=O)c1ccc(-c2cc(C)no2)s1 | inactive |  |

| SMILES | Potency | activity change, negative = inhibition |
| --- | --- | --- |
| Cc1ccccc1OCC(O)Cn1nnc2ccccc21 (configuration not stated) | inconclusive: 5.01 µM [inhibitor, full curve, poor fit] |  |
| Cc1cc(C)cc(NC(=O)CSc2nc(=O)n(Cc3ccccn3)c3c2CCC3)c1 | inactive |  |
| C/C(=N/NC(=O)C1CC1c1ccccc1)c1ccc(CC(C)C)cc1 (configuration not stated) | inconclusive: 44.7 µM [inhibitor, partial curve, poor fit] |  |
| CCCSSCCC | inconclusive: 5.62 µM [inhibitor, full curve] |  |
| CC(C)CC(=O)N1CCN(Cc2ccccc2[N+](=O)[O-])CC1 | inactive |  |
| CC(=O)Nc1cccc(-c2ccnc3c2CC(C)(C(=O)Nc2cccc(NS(C)(=O)=O)c2)O3)c1 (configuration not stated) | inactive |  |
| O=C(O)c1ccc(Nc2nc(-c3ccc(Cl)cc3)cs2)cc1O | active: 10 µM |  |
| CCN(CC)C(=O)c1ncn(C)c1C(=O)N(CC)CC | inconclusive: 44.7 µM [inhibitor, partial curve, poor fit] |  |
| Cc1ccc([S+](=O)([O-])c2nnn3c2nc(N2CCC(F)CC2)c2ccccc23)cc1C | inconclusive: 89.1 µM [inhibitor, partial curve, poor fit] |  |
| Cc1cccc(Oc2nc3c(c(=O)n(C)c(=O)n3C)n2Cc2ccccc2)c1C | inconclusive: 141 µM [inhibitor, partial curve, poor fit] |  |
| COC(=O)c1ccc(-n2c(C)cc(C(=O)CSc3cccc[n+]3[O-])c2C)cc1 | inactive |  |
| O=C(NNC(=S)NC1CCCCC1)c1cccs1 | inactive |  |
| Cc1nc(N2CCC(C(=O)Nc3cccc(Cl)c3C)CC2)c2c(C)c(C)oc2n1 | inconclusive: 50.1 µM [inhibitor, partial curve, poor fit] |  |
| Cn1c(=O)n(Cc2cccc(Br)c2)c(=O)c2c1ncn2Cc1ccccc1 | inconclusive: 126 µM [inhibitor, single point] |  |
| COc1ccc2c(ccn2CCC(=O)NCc2ccccc2OC)c1 | inconclusive: 35.5 µM [inhibitor, partial curve, poor fit] |  |
| CNC(=S)Nc1cccc(C(=O)OC)c1 | inconclusive: 89.1 µM [inhibitor, single point] |  |
| COc1cc(/C=N/Nc2ccccn2)cc(OC)c1O | inconclusive: 14.1 µM [inhibitor, full curve, poor fit] |  |
| Cc1cc(/C([O-])=C(/C(=S)Nc2ccc(F)cc2)[n+]2ccccc2)c(C)n1-c1ccc(F)cc1 | inconclusive: 4.47 µM [inhibitor, full curve] |  |
| COc1ccc(CNc2ccccc2SC)cc1OC | inconclusive: 14.1 µM [inhibitor, full curve] |  |
| O=C(O)CNS(=O)(=O)c1ccc(C(=O)/C=C/c2ccc(Cl)cc2)cc1 | inactive |  |
| COc1cccc(C(NC(C)=O)c2nc(-c3ccncc3)cs2)c1 (configuration not stated) | inconclusive: 4.47 µM [inhibitor, full curve, poor fit] |  |

Part of the list above in order of count of non-hydrogen atoms, high to low.

| SMILES | Potency | activity change, negative = inhibition |
| --- | --- | --- |
| CC(=O)Nc1cccc(-c2ccnc3c2CC(C)(C(=O)Nc2cccc(NS(C)(=O)=O)c2)O3)c1 (configuration not stated) | inactive |  |
| Cc1ccc([S+](=O)([O-])c2nnn3c2nc(N2CCC(F)CC2)c2ccccc23)cc1C | inconclusive: 89.1 µM [inhibitor, partial curve, poor fit] |  |
| COc1ccc2nc(Nc3ccccc3)sc2c1 | inconclusive: 50.1 µM [inhibitor, partial curve, poor fit] |  |
